Reference: publication PMC9023281
For at least one entry, the source does not settle the construct or the ends of the probe. A weaker result is weaker than the reference pair of the same experiment.

Protein sequences, listed by entry. Tags and fused reporters are not part of them. Residues count along the entry.
UniProt O75417, 1-894: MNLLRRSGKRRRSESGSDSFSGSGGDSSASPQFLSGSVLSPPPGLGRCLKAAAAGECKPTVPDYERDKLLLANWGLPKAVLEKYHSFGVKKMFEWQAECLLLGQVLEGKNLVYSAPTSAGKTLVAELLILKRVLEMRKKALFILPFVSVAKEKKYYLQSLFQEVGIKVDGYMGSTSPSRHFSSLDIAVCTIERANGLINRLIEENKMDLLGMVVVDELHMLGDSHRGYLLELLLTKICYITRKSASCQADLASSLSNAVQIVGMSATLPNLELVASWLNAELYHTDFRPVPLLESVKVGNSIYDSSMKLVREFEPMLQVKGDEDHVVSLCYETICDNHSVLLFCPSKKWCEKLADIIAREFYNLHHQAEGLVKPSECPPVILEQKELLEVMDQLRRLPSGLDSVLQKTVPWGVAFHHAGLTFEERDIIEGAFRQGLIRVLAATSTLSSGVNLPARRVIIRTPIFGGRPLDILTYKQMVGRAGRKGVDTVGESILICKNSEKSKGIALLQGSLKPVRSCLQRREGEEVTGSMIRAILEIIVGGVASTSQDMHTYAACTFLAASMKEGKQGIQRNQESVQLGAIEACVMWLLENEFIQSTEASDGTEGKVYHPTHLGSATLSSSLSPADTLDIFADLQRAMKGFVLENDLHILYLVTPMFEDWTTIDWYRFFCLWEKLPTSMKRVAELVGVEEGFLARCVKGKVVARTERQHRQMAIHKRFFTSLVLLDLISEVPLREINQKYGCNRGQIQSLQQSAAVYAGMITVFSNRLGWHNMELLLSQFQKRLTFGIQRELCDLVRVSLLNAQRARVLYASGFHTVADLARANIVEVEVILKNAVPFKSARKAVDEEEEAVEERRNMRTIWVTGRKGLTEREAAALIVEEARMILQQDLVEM

Target: PARylated Polθ-h (UniProt O75417)
Experiment: EMSA
Conditions: Imaging Buffer: 40 mM Tris-HCl pH 8.0, 50 mM NaCl, 2 mM MgCl2, 1 mM DTT, 0.2 mg/ml BSA, 1 mM ATP, EMSA at room temperature, single-molecule at 37 C, recombinant protein, residues 1-894, single-stranded DNA

## TTTTTTTTTTTTTTTTTTTTTTTTTTTTTTTTTTTTTTTTTTTTTTTTTT [dT50 (Poly-T50)]
256 nM prebound Polθ-h, then 25 nM PARP-1 and 4.5 mM NAD+, rapid release
  binding result: binds more weakly
pre-incubated with PARP-1 and NAD+, at least ten-fold lower affinity
  Kd: > 370 nM
